Data source: PubChem BioAssay AID504784 (Drosophila RNAi Screening Center, 2011)
In all, the deposit lists about 17,000 reagents; this is a random part of those that have a named target and a result. 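Each column is one replicate's B-score; the combined score over replicates was not deposited, so single values may mislead.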 A plus sign joins genes that one reagent is predicted to hit.

Screen: 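Fly genes whose silencing alters how much lipid cells keep in droplets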 (primary screen)
System: Drosophila Kc167 embryonic cells
Reagent: long dsRNA against Drosophila genes, about 250 ng dsRNA per well
Duration: 4 days
Treatment: cells fed 400 µM oleic acid bound to BSA
Read-out: 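Cells imaged and segmented; ratio of lipid droplet area to nuclear area, log-transformed, then normalised as a B-score over the screen; higher means more stored lipid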
Direction: droplet/nuclear area B-score: higher = more stored lipid (overstorage)

The first 3 records, to show the layout:
predicted target,amplicon,"droplet/nuclear area B-score, replicate 1","droplet/nuclear area B-score, replicate 2","droplet/nuclear area B-score, replicate 3"
CG9849,DRSC04573,-0.0119,-0.0597,
Kdm4A,DRSC06586,-0.793,0.394,
CG33493,DRSC10642,-0.49,-0.858,

Results, from the first entry:
predicted target,amplicon,"droplet/nuclear area B-score, replicate 1","droplet/nuclear area B-score, replicate 2","droplet/nuclear area B-score, replicate 3"
CG9849,DRSC04573,-0.0119,-0.0597,
Kdm4A,DRSC06586,-0.793,0.394,
CG33493,DRSC10642,-0.49,-0.858,
chp,DRSC16925,0.938,-0.688,
myo,DRSC17174,-0.854,-0.00339,
cact,DRSC03501,-1.49,-0.275,
CG13965,DRSC02307,-1.71,0.554,
CG34427,DRSC09978,-0.593,-0.536,
CG31705,DRSC01991,-1.04,0.564,
CG14805,DRSC18554,-1.16,0.0742,
Vsp37A,DRSC18794,0.643,-0.0698,
kl-2,DRSC21136,1.16,0.0299,
wupA,DRSC20385,-0.333,-0.0941,-0.378
wupA,DRSC22547,0,1.08,
Nckx30C,DRSC02686,-1.54,0.781,
Nckx30C,DRSC02687,-0.707,0.0805,
Nckx30C,DRSC02688,0.111,0.0598,
Nckx30C,DRSC02689,2.63,-1.7,
COX4L,DRSC04841,1.04,0.927,
vn,DRSC11408,2.08,0.625,
vn,DRSC23221,0.27,1.05,
COX4,DRSC02091,5.86,3.41,
ics,DRSC01878,-0.632,-0.275,
Tsf3,DRSC06849,-0.475,-0.0242,
PsGEF (retired record),DRSC18600,0.672,0.0973,
PsGEF (retired record),DRSC18601,0.0503,0.141,
Syx17,DRSC08591,-0.00339,-1.07,
Pkc98E,DRSC16791,-0.274,,
Pex11c,DRSC14677,0.686,-2.69,
CG14304,DRSC14783,2.85,2.73,
CG13689,DRSC00358,0.601,-0.79,
CG5897,DRSC10555,-2.28,-0.0508,
Glut1,DRSC07927,1.61,0.736,
Glut1,DRSC08662,0.147,,
CG7333,DRSC16229,-1.46,-1.53,
CG9839,DRSC16574,0.623,2.96,
CG15399,DRSC00413,-2.48,1.81,
CG32213 + CG12519 + 825-Oak + 1 more,DRSC09615,0.413,3.77,0.607
Csp,DRSC11860,0.0466,-0.558,-0.695
Mid1,DRSC04230,-1.74,-1.54,-0.625
Mid1,DRSC04231,0.231,-0.476,
Mid1,DRSC04308,1.77,4.51,
Mid1,DRSC22773,-2.81,-0.708,
Mid1,DRSC22803,0.614,-2.33,
CG30371,DRSC06835,0.0449,-0.054,
pita,DRSC04006,0.697,-0.742,
pita,DRSC04435,-0.0232,0.06,
Hr83,DRSC12521,-0.483,0.289,
Tret1-2,DRSC07117,-0.49,-0.258,
Hel25E,DRSC03342,-2.88,0.383,
CG14422,DRSC17919,-0.218,0.534,
Kif3C,DRSC17209,-0.558,-0.938,
Kif3C,DRSC17210,-0.0207,1.35,
Oatp30B,DRSC02727,0.0492,1.4,
Dcr-2,DRSC06992,0.257,-0.753,
ttv,DRSC07709,0.0999,0.0231,
tra,DRSC11405,-0.124,-0.468,
TyrRII,DRSC15150,2.69,-1.19,
Gr22e,DRSC20912,0.696,-0.659,
fz,DRSC11348,-0.587,-0.025,
Bulli,DRSC10974,-0.0472,-0.695,
CG5787,DRSC02895,-2.46,-1.91,
IleRS-m,DRSC10506,-1.02,-0.135,
fmt,DRSC09717,0.0405,0.167,
Mctp,DRSC06510,-0.821,0.605,
Mctp,DRSC22896,-0.411,-1.52,
Lst,DRSC07146,-1.52,,
smal,DRSC02318,-1.86,0.577,-0.218
smal,DRSC02319,0.319,1.53,
smal,DRSC02320,-0.464,-0.818,
smal,DRSC02504,1,3.77,
smal,DRSC22866,-2.51,-0.516,
Rint1,DRSC11010,-0.396,-0.0286,
ens,DRSC08454,-0.198,0.305,
Baldspot,DRSC09671,-0.882,1.04,
nau,DRSC17011,1.29,0.0796,
Eip93F,DRSC16661,2.72,1.15,
Eip93F,DRSC21754,0.0389,-2.14,
Eip93F,DRSC23072,-0.237,,
CG10214,DRSC14213,-0.819,1.34,
CG2871,DRSC18230,1.1,,-0.0552
CG2871,DRSC21719,0.671,0.0123,
UGP + PGRP-LF,DRSC10418,-0.843,0.398,
